Test results reported in publication PMC5915175.
For at least one entry, the source does not settle the construct or the ends of the probe. At least one result comes from cells or an extract, where the contact may be indirect. For part of these data: Negatives hold for the conditions tested. For part of these data: Tags and fusion partners may be left off the protein sequences shown. For part of these data: At least one verdict rests on a figure or table, not on a statement of the authors.

What was measured:
Assay in all cases: EMSA, supershift
IRF4 WT + PU.1 = conditions: PU.1 and IRF4 WT cotransfected, anti-IRF4 supershift, cold probe competition; 10 ug HEK293T nuclear lysate (nuclear lysis buffer 20 mM Hepes pH 7.9, 0.4 M NaCl, 1 mM EDTA, 1 mM EGTA, 25% glycerol) with 32P probe, 30 min on ice; protein in a lysate after overexpression; label: 32P (dATP, Klenow fill-in)
IRF4 R98W + PU.1 = conditions: PU.1 and IRF4 R98W cotransfected, IRF4-PU.1 complex abolished; 10 ug HEK293T nuclear lysate (nuclear lysis buffer 20 mM Hepes pH 7.9, 0.4 M NaCl, 1 mM EDTA, 1 mM EGTA, 25% glycerol) with 32P probe, 30 min on ice; protein in a lysate after overexpression; label: 32P (dATP, Klenow fill-in)
IRF4 R98W (Homo sapiens) = target: T1, IRF4 R98W (Homo sapiens) (UniProt Q15306); conditions: 10 ug HEK293T nuclear lysate (nuclear lysis buffer 20 mM Hepes pH 7.9, 0.4 M NaCl, 1 mM EDTA, 1 mM EGTA, 25% glycerol) with 32P probe, 30 min on ice; protein in a lysate after overexpression; residues 1-451; label: 32P (dATP, Klenow fill-in)
T1 sequence (looked up): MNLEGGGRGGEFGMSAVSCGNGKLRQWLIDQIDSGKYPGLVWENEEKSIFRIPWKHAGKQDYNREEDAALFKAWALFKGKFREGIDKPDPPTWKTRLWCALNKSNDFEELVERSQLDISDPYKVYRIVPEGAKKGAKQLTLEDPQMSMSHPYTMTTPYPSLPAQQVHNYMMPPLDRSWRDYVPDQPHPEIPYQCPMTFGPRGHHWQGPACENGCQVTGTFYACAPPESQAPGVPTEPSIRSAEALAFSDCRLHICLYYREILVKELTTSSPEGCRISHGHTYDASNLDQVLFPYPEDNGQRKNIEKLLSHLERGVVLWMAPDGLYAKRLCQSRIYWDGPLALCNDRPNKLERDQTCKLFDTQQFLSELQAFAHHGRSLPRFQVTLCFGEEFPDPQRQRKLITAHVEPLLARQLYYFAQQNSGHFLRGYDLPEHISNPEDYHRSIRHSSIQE

| Sequence | binding result (IRF4 WT + PU.1) | binding result (IRF4 R98W + PU.1) | binding result (IRF4 R98W (Homo sapiens)) |
| --- | --- | --- | --- |
| GATCGCTCTTTATTTTCCTTCACTTTGGTTAC (double strand) [lambdaB probe (EICE)] | binds | no binding | – |
| GATCGGGAAAGGGAAACCGAAACTGAA (double strand) [ISRE probe (ISG15 promoter-based)] | – | – | no binding |
